Library screen at single concentrations

From ChEMBL document CHEMBL3988442, “University of Dundee, Small-Polar-MMV Screening Library” (2021).

T. brucei: 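Whole-parasite assay of Trypanosoma brucei over 72 hours; the read-out is not stated. Compounds at 30 µM. The record gives no direction; compounds that gave an IC50 in retests scored well above the rest, so higher reads as stronger inhibition. Values scatter widely below zero; nearly all retest evidence comes from the higher of the two concentrations used. About 64,000 compounds were tested under these conditions; 1.5% (about 940) showed 50% or more at least once.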
Toxoplasma: 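Assay of Toxoplasma gondii numbers, read through their beta-galactosidase reporter with a colour substrate. Compounds at 10 µM. The record gives no direction; the compounds picked for IC50 retests had high values, so higher reads as fewer parasites. Size under these conditions: about 67,000 compounds, about 260 of them at 50% or above in at least one test.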

The filed quantity is “Percent Effect” (%).
The controls that fix the scale are not given in the record; negative values are as filed.
The compounds are a random part of those screened.
A dash means the value is not listed here; it may have been measured.

Compound | T. brucei | Toxoplasma
COCCN(Cc1ccccn1)Cc1sccc1C | -29.21% | -22.61%
CC(O)CN1CCC(CNCc2cccc(OC(C)C)c2)CC1 (stereo not drawn) | 18.34% | 14.76%
COc1ccc(C2=Nn3c(CN)nnc3-c3ccccc3C2)cc1 | 2.28% | 21.63%
O=C(O)C(F)(F)F.O=S(=O)(C1CC1)N1CCn2cc(CNc3ccccn3)nc2C1 | -4.139% | 7.759%
CCc1nc(CN(C)C(=O)c2cc(NC(C)=O)ccc2Cl)no1 | -14.44% | -9.12%
O=C(CCN1CCCCO1)N1CCC(CO)(Cc2ccccc2)CC1 | 10.09% | -4.673%
O=C(N1CCCC1)C12CC(CN1Cc1nccs1)C2 | -41.15% | 8.576%
CCOc1cc([C@H]2N[C@@H](c3nc(C)cs3)Cc3ccsc32)ccc1OC | 85.49% | 14.37%
O=C([C@@H]1Cc2[nH]cnc2CN1CC1CC1)N1CCCC1 | -44.16% | -5.431%
CCN(C)c1ccc(CNC(=O)c2cc(C(N)=O)cs2)cc1F | -21.89% | 10.39%
Cc1noc(C(C)N2CCN(c3ncnc4sccc34)CC2)n1 (stereo not drawn) | 21.5% | 0.2262%
Cn1cc(C[C@H]2[C@H](N3CCOCC3)CCN2C(=O)c2ccco2)cn1.O=C(O)C(F)(F)F | -2.989% | 2.274%
CCn1ccc(NC(=O)C2CCC(=O)N2Cc2ccc(C)o2)n1 (stereo not drawn) | -20.89% | -7.676%
CN(Cc1ncnn1C)C1CCN(c2sccc2C#N)C1=O (stereo not drawn) | 9.277% | -2.06%
[H][C@]12CN(CC3CC3)C(=O)[C@@]1([H])CN(c1cnccn1)C2 | -52.65% | 20.16%
COCc1noc(-c2ccc(N3CCCC3c3ccc(F)cc3)nc2)n1 (stereo not drawn) | -1.925% | 2.924%
Nc1ccnc(CNc2cc(F)ccc2OCC2CCCO2)n1 (stereo not drawn) | -21.78% | -6.7%
CC1CCN(C(=O)CN2CC(c3nc(C4CC4)no3)C2)CC1.O=C(O)C(=O)O | -13.55% | -17.41%
CN1CCOC(CNCCOc2ccc(C#N)cc2)C1 (stereo not drawn) | -12.43% | 4.245%
[H][C@@]12OCCN(C(=O)C3=CCCC3)[C@@]1([H])CC[C@H]2OC | -1.442% | -0.4435%
Cc1nc(-c2ccccc2C)n(CC(=O)NC(C)C2CC2)n1 (stereo not drawn) | -15.9% | -4.482%
Cc1cccc(O[C@H]2COCCN(Cc3sc(C)nc3C)C2)n1 | -0.7738% | 4.31%
Cc1cnc(N2CCC3(CC2)CC3CNC(=O)N(C)C)nc1 (stereo not drawn) | -14.34% | -4.787%
Cc1nnc2n1CCN(CCS(=O)(=O)c1ccccc1)C2 | 17.42% | 2.012%
CCCC(C)(O)c1cc(C(N)=O)no1 (stereo not drawn) | 3.549% | -1.234%
CCc1nnc(CN2CCN(c3cccc(OC)c3)C(=O)C2)o1 | -26.03% | 7.851%
CC(C)c1cc(NC(=O)CN2CCNC(=O)C2)on1 | 2.211% | 0%
CC(C)NC(=O)N1CCC2(CC(C(=O)NCc3cccnc3)=NO2)C1 (stereo not drawn) | -40.23% | 0.1068%
O=C1CC(c2ccc(C(=O)O)cc2)c2ncn(-c3ccccc3)c2N1 (stereo not drawn) | 34.02% | -6.934%
CC(=O)c1c(C)nn(CC(=O)Nc2ccc(F)cc2)c1C | -35.96% | 19.31%
CN(C)c1ccc2c(c1)CN(C(=O)c1c[nH]cn1)C2c1cnco1 (stereo not drawn) | -51.77% | -0.3723%
CC(C)c1nc(Cn2cncn2)n(-c2ccccn2)n1 | -7.771% | 1.739%
CC(C)c1n[nH]c(C2CN(CC(=O)N(C)Cc3ccco3)CCO2)n1 (stereo not drawn) | 10.01% | -4.215%
Cc1nn(C)c(N2CCOCC2)c1CNCc1ccc(Cl)s1 | -6.174% | -5.139%
CC1=C(C(=O)N(C)Cc2noc3c2CCCC3)C(C)NC(=O)N1 (stereo not drawn) | -16.34% | 2.359%
Fc1cnc(N2CCCC3(CN(Cc4ccncc4)CCO3)C2)nc1.O=C(O)C(F)(F)F.O=C(O)C(F)(F)F (stereo not drawn) | 37.08% | 1.276%
O=C1CC(c2ccncc2)C2(CCN(Cc3nccs3)CC2)N1 (stereo not drawn) | 34.22% | 4.459%
Cn1ncc2c(=O)[nH]c(CN3CCCC3Cc3ccccc3)nc21 (stereo not drawn) | 44.58% | -3.202%
O=C(c1ccco1)N1CCc2onc(Cn3cccn3)c2C1 | -20.08% | 3.983%
CCOC(=O)CNC(=O)N1CCN(c2ncccn2)CC1 | 8.642% | 16.95%
CCc1nc(-c2cncnc2C2CCCNC2)no1.Cl (stereo not drawn) | 10% | 23.83%
O=C(NCCCO)C1(CC2CC(c3ccc(F)cc3)=NO2)CCOCC1 (stereo not drawn) | -11.81% | 4.103%
Cc1cnn(CC2CN(CCCS(C)(=O)=O)CCO2)c1 (stereo not drawn) | -19.17% | 8.041%
CCc1[nH]c2c(CNc3cnccn3)cc(F)cc2c1C | 37.12% | -13.84%
CCCNC(=O)C1CCN(Cc2csc(CC)n2)CC1 | - | 7.611%
N#Cc1cccc(CN2C[C@@H](F)[C@@H](OCc3nc4ccccc4[nH]3)C2)c1 | -0.3541% | 16.83%
CCc1nc(C)c([C@H]2CN(C)C[C@@H]2C(=O)Nc2cccc3cn[nH]c23)[nH]1 | -15.46% | -11.21%
CC(=O)NCCNC(=O)c1cccc(Cn2nc(C)cc2C)c1 | -1.613% | -9.703%
CC(C(=O)NCc1ccc(-n2cncn2)nc1)n1ccnc1 (stereo not drawn) | -16.93% | -7.029%
Cc1cc(C(=O)N(CC(C)C)CC(O)c2ccc(F)cc2)[nH]n1 (stereo not drawn) | 10.37% | -9.511%
c1cncc(-c2noc(CN3CCc4cncnc4C3)n2)c1 | - | 0.4475%
COCCC(=O)N1CCC2(CCN(Cc3ccc(OC)c(F)c3)C2)C1 (stereo not drawn) | -24.85% | 15.22%
CCc1cc(N(C)CCC(O)c2ccccc2)n2nccc2n1 (stereo not drawn) | 21.77% | -30.42%
CN(C)c1cc(C(=O)N2CCCCC2Cn2cccn2)ccn1 (stereo not drawn) | - | 13.45%
CC(=O)N1N=C(c2ccccc2)OC1C(=O)N(C)CCc1ccccc1 (stereo not drawn) | -19.45% | 3.953%
CCn1ccnc1CN1CCN(CCC(=O)NC2CCCCC2)CC1 | - | 9.642%
Cn1ncc2c1CCCC2NCc1cnc(-c2ccccc2)nc1 (stereo not drawn) | 36.09% | 6.146%
Cc1nc(N2C[C@@H](CN3CCCCC3)[C@@H](CO)C2)c2sccc2n1 | -14.19% | -8.225%

The last 7 entries again:

Compound	T. brucei	Toxoplasma
COCCC(=O)N1CCC2(CCN(Cc3ccc(OC)c(F)c3)C2)C1 (stereo not drawn)	-24.85%	15.22%
CCc1cc(N(C)CCC(O)c2ccccc2)n2nccc2n1 (stereo not drawn)	21.77%	-30.42%
CN(C)c1cc(C(=O)N2CCCCC2Cn2cccn2)ccn1 (stereo not drawn)	-	13.45%
CC(=O)N1N=C(c2ccccc2)OC1C(=O)N(C)CCc1ccccc1 (stereo not drawn)	-19.45%	3.953%
CCn1ccnc1CN1CCN(CCC(=O)NC2CCCCC2)CC1	-	9.642%
Cn1ncc2c1CCCC2NCc1cnc(-c2ccccc2)nc1 (stereo not drawn)	36.09%	6.146%
Cc1nc(N2C[C@@H](CN3CCCCC3)[C@@H](CO)C2)c2sccc2n1	-14.19%	-8.225%